The supplement of paper PMC4604168 (melanoma cell lines)
The other results are listed elsewhere or left out. Many values rest on one well or one pass, so single values are uncertain.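 Imaging used 1,536-well plates; nuclei positive for cleaved PARP by antibody were divided by total DNA-stained nuclei to yield the apoptosis fraction. Doses for screening kept most cells viable, and cell lines differ markedly in resting and induced cleaved-PARP levels.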

How the values were obtained:
Assay in all cases: cleaved PARP positive nuclei fraction relative to DMSO control; melanoma cells; higher = more apoptosis
Conditions in all cases: library dose: low library concentration; 72 h
501Mel = tested on: 501Mel
A101D = tested on: A101D
A2058 = tested on: A2058
A375 = tested on: A375
C32 = tested on: C32
CBRC008 = tested on: CBRC008 (line from a melanoma biopsy)
CBRC014 = tested on: CBRC014 (line from a melanoma biopsy)
CBRC016 = tested on: CBRC016 (line from a melanoma biopsy)
CBRC017 = tested on: CBRC017 (line from a melanoma biopsy)

Compound | cleaved PARP positive nuclei fraction (501Mel) [%] | cleaved PARP positive nuclei fraction (A101D) [%] | cleaved PARP positive nuclei fraction (A2058) [%] | cleaved PARP positive nuclei fraction (A375) [%] | cleaved PARP positive nuclei fraction (C32) [%] | cleaved PARP positive nuclei fraction (CBRC008) [%] | cleaved PARP positive nuclei fraction (CBRC014) [%] | cleaved PARP positive nuclei fraction (CBRC016) [%] | cleaved PARP positive nuclei fraction (CBRC017) [%]
O=C(Nc1cc(C(F)(F)F)cc(C(F)(F)F)c1)c1cc(Cl)ccc1O + CO[C@H]1C[C@@H]2CC[C@@H](C)[C@@](O)(O2)C(=O)C(=O)N2CCCC[C@H]2C(=O)O[C@H]([C@H](C)C[C@@H]2CC[C@@H](OCCO)[C@H](OC)C2)CC(=O)[C@H](C)/C=C(\C)[C@@H](O)[C@@H](OC)C(=O)[C@H](C)C[C@H](C)/C=C/C=C/C=C/1C [everolimus] (first compound 0.016 µM, partner dose 0.02 µM) | 877 | 248 | 95.8 | 477 | 109 | 257 | 103 | 100 | 181
O=C(/C=C/c1cccnc1)NCCCCC1CCN(C(=O)c2ccccc2)CC1 + Cn1sc(=O)n(Cc2ccccc2)c1=O [TDZD-8] (first compound 0.01 µM, partner dose 0.4 µM) | 115 | 84 | 136 | 181 | 83.9 | 4150 | 88.3 | 1880 | 660
CC[C@]1(O)C[C@H]2CN(CCc3c([nH]c4ccccc34)[C@@](C(=O)OC)(c3cc4c(cc3OC)N(C=O)[C@H]3[C@@](O)(C(=O)OC)[C@H](OC(C)=O)[C@]5(CC)C=CCN6CC[C@]43[C@@H]65)C2)C1 [vincristine] + O=C(Nc1cc(C(F)(F)F)cc(C(F)(F)F)c1)c1cc(Cl)ccc1O [IMD0354] (first compound 0.0001 µM, partner dose 0.016 µM) | 48 | 158 | 1430 | 165 | 91.5 | 194 | 105 | 55.8 | 146
O=c1[nH]nc(Sc2ncc([N+](=O)[O-])s2)n1-c1ccc2c(c1)OCCO2 + Cn1cnc2c(F)c(Nc3ccc(Br)cc3Cl)c(C(=O)NOCCO)cc21 [selumetinib] (first compound 0.2 µM, partner dose 0.015 µM) | 238 | 107 | 99.5 | 219 | 83.9 | 137 | 77.4 | 75.8 | 90.8
CC[C@]1(O)C[C@H]2CN(CCc3c([nH]c4ccccc34)[C@@](C(=O)OC)(c3cc4c(cc3OC)N(C=O)[C@H]3[C@@](O)(C(=O)OC)[C@H](OC(C)=O)[C@]5(CC)C=CCN6CC[C@]43[C@@H]65)C2)C1 [vincristine] + CNC(=O)c1cc(Oc2ccc(NC(=O)Nc3ccc(Cl)c(C(F)(F)F)c3)cc2)ccn1 [sorafenib] (first compound 0.0001 µM, partner dose 0.4 µM) | 119 | 73.6 | 1540 | 36.1 | 94.4 | 237 | 92.4 | 148 | 155
CC[C@]1(O)C[C@H]2CN(CCc3c([nH]c4ccccc34)[C@@](C(=O)OC)(c3cc4c(cc3OC)N(C=O)[C@H]3[C@@](O)(C(=O)OC)[C@H](OC(C)=O)[C@]5(CC)C=CCN6CC[C@]43[C@@H]65)C2)C1 [vincristine] + CC(C)C[C@H](NC(=O)[C@H](Cc1ccccc1)NC(=O)c1cnccn1)B(O)O [Bortezomib] (first compound 0.0001 µM, partner dose 0.001 µM) | 244 | 508 | 360 | 70.8 | 95.7 | 508 | 183 | 181 | 198
Cc1cn(-c2cc(NC(=O)c3ccc(C)c(Nc4nccc(-c5cccnc5)n4)c3)cc(C(F)(F)F)c2)cn1 [nilotinib] + COc1ccc(C2=N[C@@H](c3ccc(Cl)cc3)[C@@H](c3ccc(Cl)cc3)N2C(=O)N2CCNC(=O)C2)c(OC(C)C)c1 [Nutlin-3] (first compound 0.2 µM, partner dose 0.1 µM) | 73.8 | 135 | 73.2 | 42.6 | 72.3 | 50.2 | 87.3 | 269 | 117
O=C(/C=C/c1cccnc1)NCCCCC1CCN(C(=O)c2ccccc2)CC1 + CC(=O)O[C@@]12CO[C@@H]1C[C@H](O)[C@@]1(C)C(=O)[C@H](O)C3=C(C)[C@@H](OC(=O)[C@H](O)[C@@H](NC(=O)OC(C)(C)C)c4ccccc4)C[C@@](O)([C@@H](OC(=O)c4ccccc4)[C@H]21)C3(C)C [Docetaxel] (first compound 0.01 µM, partner dose 0.0001 µM) | 283 | 123 | 4160 | 2130 | 161 | 2200 | 155 | 1360 | 668
Cc1cc(Nc2cc(N3CCN(C)CC3)nc(Sc3ccc(NC(=O)C4CC4)cc3)n2)n[nH]1 [Tozasertib] + COc1cc([C@@H]2c3cc4c(cc3[C@@H](O[C@@H]3O[C@@H]5CO[C@@H](C)O[C@H]5[C@H](O)[C@H]3O)[C@H]3COC(=O)[C@H]23)OCO4)cc(OC)c1O [etoposide] (first compound 0.006 µM, partner dose 0.02 µM) | 82.6 | 151 | 143 | 77.9 | 82 | 196 | 94.4 | 68.9 | 91.7
N#CC[C@H](C1CCCC1)n1cc(-c2ncnc3[nH]ccc23)cn1 [ruxolitinib] + C=C(c1ccc(C(=O)O)cc1)c1cc2c(cc1C)C(C)(C)CCC2(C)C [Bexarotene] (first compound 1 µM, partner dose 2 µM) | 172 | 79.5 | 83.6 | 74 | 133 | 153 | 141 | 112 | 133
CC[C@]1(O)C[C@H]2CN(CCc3c([nH]c4ccccc34)[C@@](C(=O)OC)(c3cc4c(cc3OC)N(C=O)[C@H]3[C@@](O)(C(=O)OC)[C@H](OC(C)=O)[C@]5(CC)C=CCN6CC[C@]43[C@@H]65)C2)C1 [vincristine] + C[C@]1(c2nc3c(C(N)=O)cccc3[nH]2)CCCN1 [Veliparib] (first compound 0.0001 µM, partner dose 1.4 µM) | 86.6 | 212 | 1190 | 387 | 113 | 363 | 131 | 346 | 163
O=C(Nc1cc(C(F)(F)F)cc(C(F)(F)F)c1)c1cc(Cl)ccc1O + CNC(=O)c1cc(Oc2ccc(NC(=O)Nc3ccc(Cl)c(C(F)(F)F)c3)cc2)ccn1 [sorafenib] (first compound 0.016 µM, partner dose 0.4 µM) | 92.4 | 142 | 43.9 | 85.9 | 80.1 | 81.4 | 98.5 | 83.5 | 105
O=c1[nH]nc(Sc2ncc([N+](=O)[O-])s2)n1-c1ccc2c(c1)OCCO2 + CO[C@H]1C[C@@H]2CC[C@@H](C)[C@@](O)(O2)C(=O)C(=O)N2CCCC[C@H]2C(=O)O[C@H]([C@H](C)C[C@@H]2CC[C@@H](OCCO)[C@H](OC)C2)CC(=O)[C@H](C)/C=C(\C)[C@@H](O)[C@@H](OC)C(=O)[C@H](C)C[C@H](C)/C=C/C=C/C=C/1C [everolimus] (first compound 0.2 µM, partner dose 0.02 µM) | 157 | 102 | 118 | 547 | 263 | 93 | 114 | 187 | 110
Cc1ccc(Nc2nccc(N(C)c3ccc4c(C)n(C)nc4c3)n2)cc1S(N)(=O)=O [Pazopanib] + COCC[n+]1c2c(n(Cc3cnccn3)c1C)C(=O)c1ccccc1C2=O [YM155] (first compound 0.4 µM, partner dose 0.0004 µM) | 69.3 | 91 | 81 | 87.1 | 68.3 | 630 | 96.8 | 144 | 76.7
N#CC[C@H](C1CCCC1)n1cc(-c2ncnc3[nH]ccc23)cn1 [ruxolitinib] + Nc1nc(F)nc2c1ncn2[C@@H]1O[C@H](CO)[C@@H](O)[C@@H]1O [fludarabine] (first compound 1 µM, partner dose 0.2 µM) | 15700 | 88.5 | 62.7 | 1930 | 165 | 99.8 | 95.4 | 23.9 | 107
COc1cc([C@@H]2c3cc4c(cc3[C@@H](O[C@@H]3O[C@@H]5CO[C@@H](C)O[C@H]5[C@H](O)[C@H]3O)[C@H]3COC(=O)[C@H]23)OCO4)cc(OC)c1O [etoposide] + Nc1ncn([C@H]2C[C@H](O)[C@@H](CO)O2)c(=O)n1 [decitabine] (first compound 0.02 µM, partner dose 0.1 µM) | 96.4 | 104 | 140 | 54.1 | 72.5 | 91.1 | 94.4 | 231 | 129
CC[C@]1(O)C[C@H]2CN(CCc3c([nH]c4ccccc34)[C@@](C(=O)OC)(c3cc4c(cc3OC)N(C=O)[C@H]3[C@@](O)(C(=O)OC)[C@H](OC(C)=O)[C@]5(CC)C=CCN6CC[C@]43[C@@H]65)C2)C1 [vincristine] + Nc1ccn([C@@H]2O[C@H](CO)[C@@H](O)C2(F)F)c(=O)n1 [gemcitabine] (first compound 0.0001 µM, partner dose 0.0004 µM) | 114 | 66.2 | 228 | 296 | 69.2 | 85.1 | 102 | 73.3 | 138
CCCCCCCCCCCCCCCCCCOP(=O)([O-])OC1CC[N+](C)(C)CC1 [Perifosine] + Clc1ccc(Nc2nnc(Cc3ccncc3)c3ccccc23)cc1 [vatalanib] (first compound 0.4 µM, partner dose 2 µM) | 108 | 130 | 82.1 | 157 | 79.6 | 63.5 | 115 | 85.2 | 101

Only cleaved PARP positive nuclei fraction (CBRC008) [%] (2 entries from above):
Compound,cleaved PARP positive nuclei fraction (CBRC008) [%]
"O=c1[nH]nc(Sc2ncc([N+](=O)[O-])s2)n1-c1ccc2c(c1)OCCO2 + Cn1cnc2c(F)c(Nc3ccc(Br)cc3Cl)c(C(=O)NOCCO)cc21 [selumetinib] (first compound 0.2 µM, partner dose 0.015 µM)",137
"CC[C@]1(O)C[C@H]2CN(CCc3c([nH]c4ccccc34)[C@@](C(=O)OC)(c3cc4c(cc3OC)N(C=O)[C@H]3[C@@](O)(C(=O)OC)[C@H](OC(C)=O)[C@]5(CC)C=CCN6CC[C@]43[C@@H]65)C2)C1 [vincristine] + C[C@]1(c2nc3c(C(N)=O)cccc3[nH]2)CCCN1 [Veliparib] (first compound 0.0001 µM, partner dose 1.4 µM)",363
